Measurements reported in the supplement of paper PMC6411743.
± gives the standard deviation of the averaged measurements. Only a part is listed here, and it is no random draw. Most values lie at the level of the controls, where differences are scatter.

By UniProt entry, the sequences of proteins in these tests, tags left out. Where a name states a change or a piece, a line headed by the entry shows the natural chain unless it says otherwise.
UniProt P42768: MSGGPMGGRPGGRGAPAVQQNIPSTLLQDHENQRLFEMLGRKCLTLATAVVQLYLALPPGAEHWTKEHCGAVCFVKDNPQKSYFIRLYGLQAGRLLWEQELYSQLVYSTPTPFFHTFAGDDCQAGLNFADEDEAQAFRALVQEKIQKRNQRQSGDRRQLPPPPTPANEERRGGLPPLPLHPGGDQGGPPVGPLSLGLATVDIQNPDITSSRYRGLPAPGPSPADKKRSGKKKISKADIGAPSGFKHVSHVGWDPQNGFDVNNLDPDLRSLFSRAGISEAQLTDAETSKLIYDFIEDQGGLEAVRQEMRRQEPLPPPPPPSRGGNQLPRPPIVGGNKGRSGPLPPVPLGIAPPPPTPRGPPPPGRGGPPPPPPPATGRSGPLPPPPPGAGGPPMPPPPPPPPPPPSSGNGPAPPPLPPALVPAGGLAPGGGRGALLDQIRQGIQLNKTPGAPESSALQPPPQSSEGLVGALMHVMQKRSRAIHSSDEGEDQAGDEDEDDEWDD
UniProt P41229: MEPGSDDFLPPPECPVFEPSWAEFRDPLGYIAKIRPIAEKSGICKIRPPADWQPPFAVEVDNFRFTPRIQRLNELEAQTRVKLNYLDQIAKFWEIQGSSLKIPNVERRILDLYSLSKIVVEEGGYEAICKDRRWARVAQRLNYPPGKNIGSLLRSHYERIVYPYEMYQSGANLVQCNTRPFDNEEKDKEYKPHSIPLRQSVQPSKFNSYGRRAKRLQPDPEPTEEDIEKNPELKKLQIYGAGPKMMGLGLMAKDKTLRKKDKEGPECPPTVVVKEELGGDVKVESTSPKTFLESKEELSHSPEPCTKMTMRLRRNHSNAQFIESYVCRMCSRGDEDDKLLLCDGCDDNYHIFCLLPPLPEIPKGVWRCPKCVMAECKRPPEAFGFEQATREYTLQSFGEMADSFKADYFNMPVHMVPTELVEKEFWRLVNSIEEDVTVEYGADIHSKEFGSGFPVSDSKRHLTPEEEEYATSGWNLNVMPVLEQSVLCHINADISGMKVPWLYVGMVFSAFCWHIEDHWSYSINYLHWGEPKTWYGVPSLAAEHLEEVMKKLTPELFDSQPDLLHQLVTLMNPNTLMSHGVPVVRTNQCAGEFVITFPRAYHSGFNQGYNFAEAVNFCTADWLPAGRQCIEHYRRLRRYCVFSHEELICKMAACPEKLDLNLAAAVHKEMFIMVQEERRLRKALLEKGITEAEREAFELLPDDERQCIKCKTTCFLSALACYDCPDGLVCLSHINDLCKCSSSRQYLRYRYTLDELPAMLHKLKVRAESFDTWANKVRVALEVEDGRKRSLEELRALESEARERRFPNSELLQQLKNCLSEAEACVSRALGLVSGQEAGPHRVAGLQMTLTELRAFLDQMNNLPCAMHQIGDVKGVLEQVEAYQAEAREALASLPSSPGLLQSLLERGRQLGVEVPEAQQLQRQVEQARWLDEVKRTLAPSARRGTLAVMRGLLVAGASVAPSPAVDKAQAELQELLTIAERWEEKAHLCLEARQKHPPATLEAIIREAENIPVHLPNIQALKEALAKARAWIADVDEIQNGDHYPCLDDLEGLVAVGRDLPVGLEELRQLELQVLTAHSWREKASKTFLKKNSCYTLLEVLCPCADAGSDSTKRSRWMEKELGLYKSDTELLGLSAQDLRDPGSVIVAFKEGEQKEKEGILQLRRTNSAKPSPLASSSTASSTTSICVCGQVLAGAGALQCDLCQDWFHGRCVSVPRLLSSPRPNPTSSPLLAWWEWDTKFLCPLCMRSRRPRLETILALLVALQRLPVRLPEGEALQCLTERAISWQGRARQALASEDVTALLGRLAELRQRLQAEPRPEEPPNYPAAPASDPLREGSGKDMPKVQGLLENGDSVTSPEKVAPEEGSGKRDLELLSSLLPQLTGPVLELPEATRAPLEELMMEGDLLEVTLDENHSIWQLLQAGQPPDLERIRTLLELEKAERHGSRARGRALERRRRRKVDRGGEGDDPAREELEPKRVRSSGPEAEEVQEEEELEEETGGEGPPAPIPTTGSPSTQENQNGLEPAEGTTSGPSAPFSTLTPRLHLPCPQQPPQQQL
UniProt P51970, whole entry: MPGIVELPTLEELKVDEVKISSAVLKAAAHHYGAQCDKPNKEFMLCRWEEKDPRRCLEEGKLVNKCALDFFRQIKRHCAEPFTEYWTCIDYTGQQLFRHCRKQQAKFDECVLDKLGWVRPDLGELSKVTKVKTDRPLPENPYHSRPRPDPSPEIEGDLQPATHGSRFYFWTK
UniProt P49959: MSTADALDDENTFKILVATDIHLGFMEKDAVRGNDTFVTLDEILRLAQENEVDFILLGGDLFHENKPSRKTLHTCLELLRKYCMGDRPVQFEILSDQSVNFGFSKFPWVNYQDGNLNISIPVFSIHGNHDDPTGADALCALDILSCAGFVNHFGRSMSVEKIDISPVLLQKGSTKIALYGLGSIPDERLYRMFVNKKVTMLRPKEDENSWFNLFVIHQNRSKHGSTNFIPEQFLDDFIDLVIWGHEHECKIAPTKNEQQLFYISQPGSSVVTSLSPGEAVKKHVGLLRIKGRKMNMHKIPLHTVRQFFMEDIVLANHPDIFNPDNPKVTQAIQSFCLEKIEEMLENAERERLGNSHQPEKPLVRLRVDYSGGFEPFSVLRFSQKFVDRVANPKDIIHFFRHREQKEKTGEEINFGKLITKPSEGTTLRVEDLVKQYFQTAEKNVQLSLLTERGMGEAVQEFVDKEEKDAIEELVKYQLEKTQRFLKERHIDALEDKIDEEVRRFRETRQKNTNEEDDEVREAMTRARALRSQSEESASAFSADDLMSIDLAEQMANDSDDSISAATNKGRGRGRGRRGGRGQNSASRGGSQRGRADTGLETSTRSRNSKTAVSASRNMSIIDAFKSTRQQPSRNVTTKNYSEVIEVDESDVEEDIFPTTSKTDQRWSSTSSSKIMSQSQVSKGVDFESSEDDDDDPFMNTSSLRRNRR
UniProt P42167: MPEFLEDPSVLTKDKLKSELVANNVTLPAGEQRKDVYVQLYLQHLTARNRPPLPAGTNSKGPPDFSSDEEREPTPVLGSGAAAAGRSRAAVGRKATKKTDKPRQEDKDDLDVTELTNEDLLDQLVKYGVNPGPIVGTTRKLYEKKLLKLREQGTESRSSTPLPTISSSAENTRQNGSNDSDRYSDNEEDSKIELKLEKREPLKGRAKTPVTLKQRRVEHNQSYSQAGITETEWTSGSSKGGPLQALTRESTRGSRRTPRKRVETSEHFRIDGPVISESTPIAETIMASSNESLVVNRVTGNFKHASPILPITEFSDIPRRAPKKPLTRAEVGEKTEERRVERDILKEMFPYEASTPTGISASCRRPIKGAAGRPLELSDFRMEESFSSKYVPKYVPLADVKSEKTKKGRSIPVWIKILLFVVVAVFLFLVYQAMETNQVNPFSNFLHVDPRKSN
UniProt P41743, whole entry: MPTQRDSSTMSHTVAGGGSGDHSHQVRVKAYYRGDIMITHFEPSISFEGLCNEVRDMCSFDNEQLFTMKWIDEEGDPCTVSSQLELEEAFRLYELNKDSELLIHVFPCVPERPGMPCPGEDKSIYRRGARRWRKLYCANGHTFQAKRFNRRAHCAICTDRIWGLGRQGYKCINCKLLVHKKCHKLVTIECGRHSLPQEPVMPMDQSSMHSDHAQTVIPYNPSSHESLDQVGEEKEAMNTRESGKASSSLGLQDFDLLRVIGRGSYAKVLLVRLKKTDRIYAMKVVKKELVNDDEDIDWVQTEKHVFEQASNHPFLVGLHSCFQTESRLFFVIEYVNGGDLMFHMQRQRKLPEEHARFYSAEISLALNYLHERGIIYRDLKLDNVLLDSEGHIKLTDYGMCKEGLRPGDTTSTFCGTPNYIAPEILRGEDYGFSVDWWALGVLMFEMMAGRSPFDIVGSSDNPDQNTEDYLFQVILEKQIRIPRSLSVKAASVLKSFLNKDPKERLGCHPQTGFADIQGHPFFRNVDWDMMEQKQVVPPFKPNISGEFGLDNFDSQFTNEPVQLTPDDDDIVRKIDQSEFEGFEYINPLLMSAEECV
UniProt P42785: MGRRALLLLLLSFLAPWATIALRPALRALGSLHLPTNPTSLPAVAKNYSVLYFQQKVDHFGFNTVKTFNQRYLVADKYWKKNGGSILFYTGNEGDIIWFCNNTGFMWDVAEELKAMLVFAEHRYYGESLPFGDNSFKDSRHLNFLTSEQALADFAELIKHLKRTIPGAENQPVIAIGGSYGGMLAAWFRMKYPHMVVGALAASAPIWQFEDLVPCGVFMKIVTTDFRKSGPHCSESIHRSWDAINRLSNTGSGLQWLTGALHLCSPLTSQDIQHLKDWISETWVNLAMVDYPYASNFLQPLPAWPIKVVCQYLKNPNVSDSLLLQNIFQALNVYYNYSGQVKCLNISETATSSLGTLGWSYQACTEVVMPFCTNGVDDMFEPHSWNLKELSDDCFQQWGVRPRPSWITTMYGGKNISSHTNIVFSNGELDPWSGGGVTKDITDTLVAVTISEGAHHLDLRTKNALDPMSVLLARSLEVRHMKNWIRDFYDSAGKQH
UniProt P43155: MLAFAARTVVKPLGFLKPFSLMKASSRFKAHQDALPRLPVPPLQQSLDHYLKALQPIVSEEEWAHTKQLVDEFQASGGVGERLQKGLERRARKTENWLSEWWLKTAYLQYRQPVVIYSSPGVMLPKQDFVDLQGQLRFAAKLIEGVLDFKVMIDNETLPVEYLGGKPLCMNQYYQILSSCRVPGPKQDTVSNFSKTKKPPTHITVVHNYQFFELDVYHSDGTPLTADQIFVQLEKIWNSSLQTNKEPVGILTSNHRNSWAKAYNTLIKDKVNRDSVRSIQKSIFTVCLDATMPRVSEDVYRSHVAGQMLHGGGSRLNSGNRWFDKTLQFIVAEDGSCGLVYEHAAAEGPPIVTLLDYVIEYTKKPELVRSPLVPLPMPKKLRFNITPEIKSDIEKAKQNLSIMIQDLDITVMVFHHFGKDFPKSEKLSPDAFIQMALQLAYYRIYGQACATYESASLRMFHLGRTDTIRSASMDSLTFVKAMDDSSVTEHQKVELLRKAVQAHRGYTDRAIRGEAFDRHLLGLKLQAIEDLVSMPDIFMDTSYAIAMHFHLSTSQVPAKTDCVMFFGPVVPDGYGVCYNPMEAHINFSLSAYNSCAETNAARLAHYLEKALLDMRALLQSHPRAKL
UniProt P48380: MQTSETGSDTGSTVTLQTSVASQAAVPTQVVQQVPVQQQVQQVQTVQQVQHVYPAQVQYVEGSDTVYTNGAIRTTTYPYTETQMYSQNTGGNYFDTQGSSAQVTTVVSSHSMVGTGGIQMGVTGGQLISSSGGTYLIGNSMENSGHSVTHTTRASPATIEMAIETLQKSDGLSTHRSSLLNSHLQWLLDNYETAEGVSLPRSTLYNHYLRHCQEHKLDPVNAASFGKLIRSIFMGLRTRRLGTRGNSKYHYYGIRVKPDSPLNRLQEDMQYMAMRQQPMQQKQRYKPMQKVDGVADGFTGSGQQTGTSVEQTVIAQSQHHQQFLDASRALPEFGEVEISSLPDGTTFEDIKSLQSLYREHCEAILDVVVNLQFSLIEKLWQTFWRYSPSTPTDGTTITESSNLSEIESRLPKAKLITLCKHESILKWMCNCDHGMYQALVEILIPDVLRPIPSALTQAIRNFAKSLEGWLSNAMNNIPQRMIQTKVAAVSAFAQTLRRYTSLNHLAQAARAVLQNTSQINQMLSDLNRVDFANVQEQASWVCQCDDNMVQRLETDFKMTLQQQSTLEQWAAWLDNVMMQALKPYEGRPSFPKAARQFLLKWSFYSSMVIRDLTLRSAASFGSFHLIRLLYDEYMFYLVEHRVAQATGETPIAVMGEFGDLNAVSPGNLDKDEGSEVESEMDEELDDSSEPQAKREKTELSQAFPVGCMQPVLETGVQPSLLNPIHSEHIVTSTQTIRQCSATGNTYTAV
UniProt P51580: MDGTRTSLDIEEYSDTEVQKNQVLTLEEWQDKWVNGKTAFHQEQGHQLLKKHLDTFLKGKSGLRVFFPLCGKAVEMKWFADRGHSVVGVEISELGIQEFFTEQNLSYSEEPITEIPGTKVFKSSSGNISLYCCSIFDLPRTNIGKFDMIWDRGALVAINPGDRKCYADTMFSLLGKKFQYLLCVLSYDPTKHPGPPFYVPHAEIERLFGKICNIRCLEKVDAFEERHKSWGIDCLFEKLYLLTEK
UniProt P55081: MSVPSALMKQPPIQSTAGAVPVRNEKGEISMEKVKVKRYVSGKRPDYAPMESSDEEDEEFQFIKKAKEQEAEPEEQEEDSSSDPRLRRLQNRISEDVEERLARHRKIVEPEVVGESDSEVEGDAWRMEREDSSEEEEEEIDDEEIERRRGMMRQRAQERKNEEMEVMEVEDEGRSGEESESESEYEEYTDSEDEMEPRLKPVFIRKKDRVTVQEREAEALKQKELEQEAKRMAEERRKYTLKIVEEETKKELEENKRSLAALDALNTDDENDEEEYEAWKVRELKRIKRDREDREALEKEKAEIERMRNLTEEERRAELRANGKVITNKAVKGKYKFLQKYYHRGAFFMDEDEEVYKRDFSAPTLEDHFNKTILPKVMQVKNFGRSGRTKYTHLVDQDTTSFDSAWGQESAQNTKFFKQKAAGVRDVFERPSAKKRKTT

Each target was assayed with Nc1ncnc2c1ncn2[C@@H]1O[C@H](COP(=O)(O)OP(=O)(O)NP(=O)(O)O)[C@@H](O)[C@H]1O [adenylyl imidodiphosphate] (assay: NP40-soluble protein abundance relative to vehicle (solubility fold change) (ratio); higher = more soluble protein in presence of AMP-PNP). Conditions: concentration: 0.1mM.
Outline: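 Jurkat crude lysate prepared with a Dounce homogeniser was treated at eight concentrations spanning 0.1 to 10 mM, 10 min at room temperature then 3 min at 37 °C. Solubilisation with 0.8% NP40 and benzonase and ultracentrifugation preceded TMT labelling of the supernatant for LC-MS/MS. Fold change against the detergent-processed vehicle was determined per replicate from vsn-normalised intensities, across three independent experiments.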
Work on LRPPRC (UniProt P42704) yielded an NP40-soluble protein abundance of 0.961 ± 0.065.
In the case of WAS (UniProt P42768), the NP40-soluble protein abundance is reported as 0.968 ± 0.024.
In the case of RBM34 (UniProt P42696), the NP40-soluble protein abundance is reported as 0.995 ± 0.051.
ALDH9A1 (UniProt P49189) gave an NP40-soluble protein abundance of 1.02 ± 0.018.
With EIF2B2 (UniProt P49770) the NP40-soluble protein abundance was 1.02 ± 0.055.
In the case of UniProt P49750-3|P49750-4, the NP40-soluble protein abundance is reported as 0.988 ± 0.015.
Work on UniProt P41229 and related entries yielded an NP40-soluble protein abundance of 1.05 ± 0.051.
PIK3CG (UniProt P48736) gave an NP40-soluble protein abundance of 0.985 ± 0.037.
In the case of NDUFA8 (UniProt P51970), the NP40-soluble protein abundance is reported as 0.984 ± 0.036.
UniProt P49959 was tested, and the NP40-soluble protein abundance was 0.984 ± 0.031.
For UniProt P54819 and related entries, the NP40-soluble protein abundance was 0.959 ± 0.021.
Target DRG2 (UniProt P55039) has an NP40-soluble protein abundance of 1.04 ± 0.049.
Target “P42166 and related entries (UniProt P42167+P42166)” has an NP40-soluble protein abundance of 1.004 ± 0.01.
For RANGAP1 (UniProt P46060), the NP40-soluble protein abundance was 0.9997 ± 0.0076.
For UniProt P49841 and related entries, the NP40-soluble protein abundance was 0.99 ± 0.019.
UniProt P41743 showed an NP40-soluble protein abundance of 1.01 ± 0.011.
PRCP (UniProt P42785) showed an NP40-soluble protein abundance of 0.988 ± 0.038.
HNRNPF (UniProt P52597) showed an NP40-soluble protein abundance of 0.976 ± 0.046.
In the case of UniProt P43155 and related entries, the NP40-soluble protein abundance is reported as 0.989 ± 0.033.
UniProt P40925 and related entries showed an NP40-soluble protein abundance of 0.9693 ± 0.0059.
Work on ACADSB (UniProt P45954) yielded an NP40-soluble protein abundance of 1.02 ± 0.034.
UniProt P50579 and related entries gave an NP40-soluble protein abundance of 1 ± 0.015.
For UniProt P52757 and related entries, the NP40-soluble protein abundance was 1 ± 0.019.
Target RFX3 (UniProt P48380) has an NP40-soluble protein abundance of 0.99 ± 0.014.
TPMT (UniProt P51580) showed an NP40-soluble protein abundance of 0.999 ± 0.029.
With UniProt P47897 and related entries the NP40-soluble protein abundance was 1.05 ± 0.026.
UniProt P40337 and related entries was tested, and the NP40-soluble protein abundance was 0.99 ± 0.032.
In the case of UniProt P45880 and related entries, the NP40-soluble protein abundance is reported as 1.01 ± 0.022.
For NAMPT (UniProt P43490), the NP40-soluble protein abundance was 0.9842 ± 0.002.
For PPP5C (UniProt P53041), the NP40-soluble protein abundance was 0.991 ± 0.033.
With UniProt P46783 and related entries the NP40-soluble protein abundance was 1.046 ± 0.0042.
Work on UniProt P46736 and related entries yielded an NP40-soluble protein abundance of 1.01 ± 0.05.
For HADHB (UniProt P55084), the NP40-soluble protein abundance was 1.02 ± 0.016.
With MFAP1 (UniProt P55081) the NP40-soluble protein abundance was 1.03 ± 0.018.
Work on UniProt P49336 and related entries yielded an NP40-soluble protein abundance of 1 ± 0.047.
UniProt P55265 and related entries was tested, and the NP40-soluble protein abundance was 1.04 ± 0.024.
For NUP153 (UniProt P49790), the NP40-soluble protein abundance was 0.972 ± 0.019.
